Laboratory results published in doi:10.1101/2021.05.25.445488.

Protein sequences, listed by entry. Tags and fused reporters are not part of them. Lines headed by an entry give the natural chain unless they say otherwise; changes in a name come on top. Chains listed by the source or under a name are the forms on record and can include a tag or linker.
LAP tagged ARL13B V359A, T-REx 293 (Q3SXY8-1, form named): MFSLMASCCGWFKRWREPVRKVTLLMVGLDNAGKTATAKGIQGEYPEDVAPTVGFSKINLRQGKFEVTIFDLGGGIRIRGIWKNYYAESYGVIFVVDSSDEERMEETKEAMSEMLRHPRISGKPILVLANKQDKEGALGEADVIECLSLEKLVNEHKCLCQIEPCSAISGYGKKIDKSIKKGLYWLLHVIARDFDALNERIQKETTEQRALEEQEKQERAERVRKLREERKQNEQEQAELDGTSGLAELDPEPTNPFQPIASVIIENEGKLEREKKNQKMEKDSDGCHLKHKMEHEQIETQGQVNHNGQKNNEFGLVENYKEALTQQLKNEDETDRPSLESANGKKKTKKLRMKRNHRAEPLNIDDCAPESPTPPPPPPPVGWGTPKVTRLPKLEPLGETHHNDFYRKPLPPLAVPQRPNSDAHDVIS

Tests used:
[1] = target: T1, LAP-TULP3 full-length (GFP-TEV-S-tagged), T-REx-293 (human) (UniProt O75386); assay: proximity labelling
T1 sequence: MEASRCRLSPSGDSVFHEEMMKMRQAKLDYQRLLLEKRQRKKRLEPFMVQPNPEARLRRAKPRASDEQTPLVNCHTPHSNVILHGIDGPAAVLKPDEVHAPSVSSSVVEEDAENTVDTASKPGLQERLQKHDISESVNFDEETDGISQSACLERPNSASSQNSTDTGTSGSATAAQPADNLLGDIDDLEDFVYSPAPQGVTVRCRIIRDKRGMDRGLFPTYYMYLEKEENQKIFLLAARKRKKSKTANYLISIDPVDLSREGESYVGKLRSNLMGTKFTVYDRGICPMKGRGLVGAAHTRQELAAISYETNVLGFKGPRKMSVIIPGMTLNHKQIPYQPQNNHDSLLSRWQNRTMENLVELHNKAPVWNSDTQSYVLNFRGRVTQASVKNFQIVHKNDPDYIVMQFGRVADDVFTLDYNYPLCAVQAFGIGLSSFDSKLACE

[2] = target: T2, BirA* tagged TULP3, T-REx 293 (human) (UniProt O75386); assay: proximity labelling
T2 sequence: T1 sequence

binding [1]	binding [2]	Substance
binds		BirA*-Flag tagged ARL13B, T-REx-293 (from UniProt Q3SXY8-1 1-428)
	binds	LAP tagged ARL13B, T-REx 293 (from UniProt Q3SXY8-1 1-428)
	binds	LAP tagged ARL13B V359A, T-REx 293 (from UniProt Q3SXY8-1 1-428)

Results are given in words; binding and its absence hold for the method and conditions named. Binding seen in cells or lysates may run through a third protein. A yes stands for co-enrichment or nearness to the bait. Other partners may have been found. Tags and fused reporters may be left off the sequences shown.
